For this experiment, the system named is BDF1 mice, P388 leukemia ip, median survival T/C. In words: NCI In Vivo Anticancer Drug Screen. Data for tumor model P388 Leukemia (intraperitoneal) in B6D2F1 (BDF1) mice. To be noted: T/C endpoint: median survival time, higher T/C = longer survival. Summed up: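 Mice carrying the transplantable tumour receive compound or vehicle. Survival is followed in each arm, and the treated measure is divided by the vehicle measure.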

Where [1] appears, read: dose: 37.5 mg/kg/injection, schedule: Q04DX003 (ip), vehicle: saline.

The list does not hold the whole screen: it gathers tests that were run many times, whatever their T/C, doses with no T/C, and many T/C values between a quarter and a half above the control. Other doses and runs of a compound stand elsewhere. T/C gives the treated animals as a percentage of the vehicle group. Some doses have a count of surviving animals in place of a T/C: the source files T/C as zero there, which appears to mark a toxic dose or a test without result, not a measured value. Some survivor counts are full or nearly so, which does not show that the dose was tolerated: the source hardly ever lists a survival T/C far under the control, and the zero likely stands for such cases as well. Survivors were counted at the toxicity check, usually on the fifth day, unless a day is given; later deaths do not show. Schedule codes are those of the source, read here as Q, the interval in days (D) or hours (H), X, the number of doses. Where survival is the endpoint, the PubChem record calls one and a half times the control and up active, and a quarter to a half above the control has no call in these data; cut-offs in other NCI protocols can differ. Some entries hold several experiments; the values are given in rising order. Counts like (3×) give the number of equal values in this list. Some T/C values are followed by the survivors on the day toxicity was checked, most often the fifth; without a count, all were alive then.

On to `O=c1[nH]c(=O)c2nccnc2[nH]1`, for which the survivor count (dose: 200.0 mg/kg/injection, schedule: Q01DX009 (ip), vehicle: water) was 6 of 6. Also, where the note is “dose: 400.0 mg/kg/injection, schedule: Q01DX009 (ip), vehicle: water”, the T/C was 138 % of control [4 of 6 alive].
Regarding `Cc1n[nH]c(=O)[nH]c1=O`, the survivor count runs as follows: (dose: 200.0 mg/kg/injection, schedule: Q01DX009 (ip), vehicle: Klucel (hydroxypropylcellulose) (HPC)) 6 of 6; (dose: 400.0 mg/kg/injection, schedule: Q01DX009 (ip), vehicle: Klucel (hydroxypropylcellulose) (HPC)) 5 of 6.
For `CCOC(=O)C1=C(C)NC(C)=C(C(=O)OCC)C1c1ccccc1Cl`, the survivor count (dose: 170.0 mg/kg/injection, schedule: Q01DX009 (ip), vehicle: Klucel (hydroxypropylcellulose) (HPC)) is 0 of 6; the survivor count (dose: 170.0 mg/kg/injection, schedule: Q04DX003 (ip), vehicle: Klucel (hydroxypropylcellulose) (HPC)) was 3 of 6; the survivor count (dose: 260.0 mg/kg/injection, schedule: Q04DX003 (ip), vehicle: Klucel (hydroxypropylcellulose) (HPC)) is 0 of 6; the survivor count (dose: 390.0 mg/kg/injection, schedule: Q01DX001 (ip), vehicle: Klucel (hydroxypropylcellulose) (HPC)) was 1 of 6; the survivor count (dose: 390.0 mg/kg/injection, schedule: Q04DX003 (ip), vehicle: Klucel (hydroxypropylcellulose) (HPC)) is 0 of 6.
`CC1=C(c2ccccc2)OC(c2ccccc2)=C[P+]1(c1ccccc1)c1ccccc1`: the survivor count by setting is: (dose: 50.0 mg/kg/injection, schedule: Q01DX005 (ip), vehicle: saline with Tween-80) 0 of 5; (dose: 100.0 mg/kg/injection, schedule: Q01DX005 (ip), vehicle: saline with Tween-80) 0 of 5; (dose: 200.0 mg/kg/injection, schedule: Q01DX005 (ip), vehicle: saline with Tween-80) 0 of 5.
`O=C(C=C(C(F)(F)F)C(F)(F)F)c1ccccc1Cl`: the survivor count (dose: 37.5 mg/kg/injection, schedule: Q01DX009 (ip), vehicle: saline with Tween-80) is given as 1 of 6.
Take `CC(=O)N1C(=O)NC(=O)C1(C)c1cccs1` (centres undefined): the survivor count (dose: 300.0 mg/kg/injection, schedule: Q01DX009 (ip), vehicle: saline with Tween-80) is recorded as 4 of 6.
Regarding `N#Cc1nc2c(nc1C#N)-c1ccccc1C2=O`, under “dose: 25.0 mg/kg/injection, schedule: Q01DX009 (ip), vehicle: Klucel (hydroxypropylcellulose) (HPC)”, the survivor count is on record as 5 of 6.
Regarding `CN(C)c1ccc2nc3ccc(=[N+](C)C)cc-3sc2c1`, the T/C by setting is: (dose: 25.0 mg/kg/injection, schedule: Q01DX009 (ip), vehicle: saline) 125 % of control; (dose: 25.0 mg/kg/injection, schedule: Q04DX003 (ip), vehicle: saline) 109 (2×) and 159 % of control; under setting [1], 136 % of control. Further, the survivor count (dose: 37.5 mg/kg/injection, schedule: Q01DX009 (ip), vehicle: saline) is 2 of 6; the survivor count under setting [1] is on record as 6 of 6; the survivor count (dose: 40.0 mg/kg/injection, schedule: Q01DX009 (ip), vehicle: saline) was 5 of 6; the survivor count (dose: 50.0 mg/kg/injection, schedule: Q01DX009 (ip), vehicle: saline) is on record as 1 of 6.
On to `NC(=O)SCC(=O)Nc1ccc2ncccc2c1`, for which the T/C was 131 % of control [5 of 6 alive] (dose: 200.0 mg/kg/injection, schedule: Q01DX009 (ip), vehicle: saline) and 127 % of control (dose: 300.0 mg/kg/injection, schedule: Q01DX009 (ip), vehicle: saline).

Values taken from PubChem BioAssay AID328 (DTP/NCI, 2004).
